From publication PMC12592336

Target: Rab11 (human (endogenous in HepG2))
Assay: co-IP; anti-Rab11 antibody (control IgG beside it) on NP-40 lysates (50 mM Tris-HCl pH 8.0, 150 mM NaCl, 1% NP-40) of HepG2-NTCP CDC42-WT, CDC42-CA and CDC42-DN cells, 4 °C overnight; blots with anti-NTCP and anti-CDC42

B1: sodium taurocholate co-transporting polypeptide (NTCP) (receptor, UniProt Q14973 1-349)
chain: MEAHNASAPFNFTLPPNFGKRPTDLALSVILVFMLFFIMLSLGCTMEFSKIKAHLWKPKGLAIALVAQYGIMPLTAFVLGKVFRLKNIEALAILVCGCSPGGNLSNVFSLAMKGDMNLSIVMTTCSTFCALGMMPLLLYIYSRGIYDGDLKDKVPYKGIVISLVLVLIPCTIGIVLKSKRPQYMRYVIKGGMIIILLCSVAVTVLSAINVGKSIMFAMTPLLIATSSLMPFIGFLLGYVLSALFCLNGRCRRTVSMETGCQNVQLCSTILNVAFPPEVIGPLFFFPLLYMIFQLGEGLLLIAIFWCYEKFKTPKDKTKMIYTAATTEETIPGALGNGTYKGEDCSPCTA
binding: binds

These are yes or no findings as the source states them, for the method shown. Binding seen in cells or lysates may run through a third protein. A result given as binding can be weak or reduced; the word gives no strength.
